PubChem BioAssay AID1259308, NCATS – 2017
Purpose: 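Knock-downs that increase output of a recombinant reporter protein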 (primary screen). System: human HEK293 embryonic kidney cells stably expressing firefly luciferase (HEK-CMV-Luc2-Hygro). Knock-down reagent: single siRNA against human genes, 0.8 pmol siRNA per well. Duration: 72 h. Measured: 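Reporter luminescence and viable-cell signal on separate replicate plates, given as percent of non-targeting control and median/MAD z-scores, plus per-cell luciferase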. Reading the numbers: total luciferase, z-score: higher = more reporter protein produced. Hit rule: 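An siRNA counts as active if its total luciferase robust z-score exceeds 3; genes with two or more such siRNAs out of three were retested with fresh siRNAs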. Meaning of the calls: active = raised luciferase; inactive = no rise.
This is one part, drawn at random, of about 59,000 reagents tested. About 1,510 of them (2.6%) count as active. 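Calls use total luciferase alone and ignore viability, so some active siRNAs may act by altering cell number.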 Unmarked entries are inactive. The numbers tell different reagents against one gene apart. Further read-outs or replicates are left out here.

The opening 2 records, ahead of the listing:
gene | reagent no. | total luciferase, z-score
SLC24A3 | 1 | -0.222
SLC24A3 | 2 | 0.316

The listing, repeating the preview:
gene | reagent no. | total luciferase, z-score
SLC24A3 | 1 | -0.222
SLC24A3 | 2 | 0.316
SLC24A3 | 3 | -0.502
HAUS4 (HAUS augmin like complex subunit 4) | 1 | -0.681
HAUS4 (HAUS augmin like complex subunit 4) | 2 | 1.25
HAUS4 (HAUS augmin like complex subunit 4) | 3 | -2.08
F8A2 (coagulation factor VIII associated 2) | 1 | -0.387
F8A2 (coagulation factor VIII associated 2) | 2 | 0.0939
F8A2 (coagulation factor VIII associated 2) | 3 | -0.173
TAAR8 (trace amine associated receptor 8) | 1 | -0.58
TAAR8 (trace amine associated receptor 8) | 2 | 0.0241
TAAR8 (trace amine associated receptor 8) | 3 | 1.51
PXYLP1 (2-phosphoxylose phosphatase 1) | 1 | -0.35
PXYLP1 (2-phosphoxylose phosphatase 1) | 2 | -1.48
PXYLP1 (2-phosphoxylose phosphatase 1) | 3 | -1.83
COLCA1 (colorectal cancer associated 1) | 1 | -0.798
COLCA1 (colorectal cancer associated 1) | 2 | 2.31
COLCA1 (colorectal cancer associated 1) | 3 | 2.24
GRK4 (G protein-coupled receptor kinase 4) | 1 | -0.892
GRK4 (G protein-coupled receptor kinase 4) | 2 | 0.435
GRK4 (G protein-coupled receptor kinase 4) | 3 | 1.5
RIPPLY3 (ripply transcriptional repressor 3) | 1 | 0.24
RIPPLY3 (ripply transcriptional repressor 3) | 2 | -1.26
RIPPLY3 (ripply transcriptional repressor 3) | 3 | -0.197
